Several values for one entry are separate records, joined by “and”; a condition that tells them apart may be missing. Equal entries are not always repeated. The shares of active, inactive and inconclusive entries below differ from those in the screen. For some assays here: A potency beside an inconclusive call is a rough fit, not a confirmed value. Some compounds were tested as several samples or in several runs, with calls that do not always agree. Activity calls are given as the source filed them. Rule for the calls: active = hit-call score of the fitted dose curve at least 0.9, where 1 is the maximum; inconclusive = response in the unintended direction; inactive = score below 0.9.
Legend:
[1] = molecular target: Estrogen receptor (Homo sapiens) (UniProt P03372); test: NVS_NR_hER: NovaScreen (NVS) Nuclear Receptor Binding Assay for human Estrogen Receptor (ER) (AID 2283348)
Method in brief: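 MCF7-derived receptor extract, radiolabelled ligand, competitive displacement. Read: scintillation counts at 18 h. DMSO = negative control/baseline. Primary 25 uM duplicate; follow-up concentration–response.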

The chains behind the UniProt entries cited, without tags or fusion partners. Where a name states a change or a piece, a line headed by the entry shows the natural chain unless it says otherwise.
UniProt P03372, whole entry, looked up: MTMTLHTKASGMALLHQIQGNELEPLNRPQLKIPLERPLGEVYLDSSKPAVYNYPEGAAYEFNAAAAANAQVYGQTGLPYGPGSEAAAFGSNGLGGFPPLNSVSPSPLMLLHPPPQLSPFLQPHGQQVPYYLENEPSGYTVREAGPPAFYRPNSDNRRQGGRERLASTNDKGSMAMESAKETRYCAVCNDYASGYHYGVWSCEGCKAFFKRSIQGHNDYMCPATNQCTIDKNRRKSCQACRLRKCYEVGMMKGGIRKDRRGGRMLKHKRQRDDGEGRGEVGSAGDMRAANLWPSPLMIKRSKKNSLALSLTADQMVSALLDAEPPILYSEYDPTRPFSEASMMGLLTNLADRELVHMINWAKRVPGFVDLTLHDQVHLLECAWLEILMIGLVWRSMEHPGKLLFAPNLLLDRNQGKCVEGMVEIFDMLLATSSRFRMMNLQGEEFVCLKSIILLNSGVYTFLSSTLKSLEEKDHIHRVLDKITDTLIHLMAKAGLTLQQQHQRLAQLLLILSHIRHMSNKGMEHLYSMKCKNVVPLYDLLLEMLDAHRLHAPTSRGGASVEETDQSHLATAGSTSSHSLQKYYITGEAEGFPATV
UniProt P06401: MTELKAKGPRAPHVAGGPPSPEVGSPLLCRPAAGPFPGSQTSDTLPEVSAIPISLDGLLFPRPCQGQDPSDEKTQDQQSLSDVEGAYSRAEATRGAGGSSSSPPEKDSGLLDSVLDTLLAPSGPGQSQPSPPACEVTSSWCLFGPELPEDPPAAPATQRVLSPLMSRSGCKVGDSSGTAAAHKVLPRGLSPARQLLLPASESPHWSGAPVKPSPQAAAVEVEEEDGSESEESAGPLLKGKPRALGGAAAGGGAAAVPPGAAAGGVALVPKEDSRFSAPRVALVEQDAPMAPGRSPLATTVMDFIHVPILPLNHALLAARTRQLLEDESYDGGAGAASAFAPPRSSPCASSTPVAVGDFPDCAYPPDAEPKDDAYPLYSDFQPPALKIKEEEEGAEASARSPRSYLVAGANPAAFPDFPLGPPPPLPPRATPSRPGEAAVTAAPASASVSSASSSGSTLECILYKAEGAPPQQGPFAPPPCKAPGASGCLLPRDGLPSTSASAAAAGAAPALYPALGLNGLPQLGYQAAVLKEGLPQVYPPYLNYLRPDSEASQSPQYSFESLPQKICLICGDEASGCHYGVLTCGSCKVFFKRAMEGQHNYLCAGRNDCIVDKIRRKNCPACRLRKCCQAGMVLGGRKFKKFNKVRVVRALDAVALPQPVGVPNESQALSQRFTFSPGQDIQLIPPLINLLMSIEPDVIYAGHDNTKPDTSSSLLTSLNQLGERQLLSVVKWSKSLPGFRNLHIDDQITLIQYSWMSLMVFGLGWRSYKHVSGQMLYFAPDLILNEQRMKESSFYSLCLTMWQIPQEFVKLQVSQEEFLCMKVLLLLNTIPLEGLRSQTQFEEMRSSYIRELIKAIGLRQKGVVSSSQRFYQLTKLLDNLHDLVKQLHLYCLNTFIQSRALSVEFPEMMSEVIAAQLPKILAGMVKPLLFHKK
UniProt Q98867: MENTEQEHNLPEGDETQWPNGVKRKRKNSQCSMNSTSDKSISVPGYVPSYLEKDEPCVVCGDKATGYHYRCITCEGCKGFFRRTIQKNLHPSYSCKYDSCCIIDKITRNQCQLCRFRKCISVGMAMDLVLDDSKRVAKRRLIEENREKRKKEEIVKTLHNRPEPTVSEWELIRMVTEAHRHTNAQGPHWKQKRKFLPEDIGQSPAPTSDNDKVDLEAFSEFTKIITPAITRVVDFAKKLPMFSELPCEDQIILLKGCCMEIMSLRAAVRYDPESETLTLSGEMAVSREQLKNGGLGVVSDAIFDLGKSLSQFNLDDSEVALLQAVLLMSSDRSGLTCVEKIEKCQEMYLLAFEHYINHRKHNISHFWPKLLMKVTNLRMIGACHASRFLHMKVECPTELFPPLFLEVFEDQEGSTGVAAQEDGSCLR
UniProt P62136, whole entry, looked up: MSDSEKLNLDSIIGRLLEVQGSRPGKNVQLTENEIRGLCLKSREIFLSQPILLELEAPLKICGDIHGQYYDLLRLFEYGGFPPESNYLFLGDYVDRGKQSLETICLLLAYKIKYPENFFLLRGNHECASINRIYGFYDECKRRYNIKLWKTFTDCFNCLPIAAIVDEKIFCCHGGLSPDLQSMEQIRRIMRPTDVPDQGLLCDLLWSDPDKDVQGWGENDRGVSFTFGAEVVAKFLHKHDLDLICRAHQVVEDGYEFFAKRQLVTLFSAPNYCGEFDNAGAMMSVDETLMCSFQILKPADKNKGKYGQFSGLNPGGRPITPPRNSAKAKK
UniProt P10586, whole entry, looked up: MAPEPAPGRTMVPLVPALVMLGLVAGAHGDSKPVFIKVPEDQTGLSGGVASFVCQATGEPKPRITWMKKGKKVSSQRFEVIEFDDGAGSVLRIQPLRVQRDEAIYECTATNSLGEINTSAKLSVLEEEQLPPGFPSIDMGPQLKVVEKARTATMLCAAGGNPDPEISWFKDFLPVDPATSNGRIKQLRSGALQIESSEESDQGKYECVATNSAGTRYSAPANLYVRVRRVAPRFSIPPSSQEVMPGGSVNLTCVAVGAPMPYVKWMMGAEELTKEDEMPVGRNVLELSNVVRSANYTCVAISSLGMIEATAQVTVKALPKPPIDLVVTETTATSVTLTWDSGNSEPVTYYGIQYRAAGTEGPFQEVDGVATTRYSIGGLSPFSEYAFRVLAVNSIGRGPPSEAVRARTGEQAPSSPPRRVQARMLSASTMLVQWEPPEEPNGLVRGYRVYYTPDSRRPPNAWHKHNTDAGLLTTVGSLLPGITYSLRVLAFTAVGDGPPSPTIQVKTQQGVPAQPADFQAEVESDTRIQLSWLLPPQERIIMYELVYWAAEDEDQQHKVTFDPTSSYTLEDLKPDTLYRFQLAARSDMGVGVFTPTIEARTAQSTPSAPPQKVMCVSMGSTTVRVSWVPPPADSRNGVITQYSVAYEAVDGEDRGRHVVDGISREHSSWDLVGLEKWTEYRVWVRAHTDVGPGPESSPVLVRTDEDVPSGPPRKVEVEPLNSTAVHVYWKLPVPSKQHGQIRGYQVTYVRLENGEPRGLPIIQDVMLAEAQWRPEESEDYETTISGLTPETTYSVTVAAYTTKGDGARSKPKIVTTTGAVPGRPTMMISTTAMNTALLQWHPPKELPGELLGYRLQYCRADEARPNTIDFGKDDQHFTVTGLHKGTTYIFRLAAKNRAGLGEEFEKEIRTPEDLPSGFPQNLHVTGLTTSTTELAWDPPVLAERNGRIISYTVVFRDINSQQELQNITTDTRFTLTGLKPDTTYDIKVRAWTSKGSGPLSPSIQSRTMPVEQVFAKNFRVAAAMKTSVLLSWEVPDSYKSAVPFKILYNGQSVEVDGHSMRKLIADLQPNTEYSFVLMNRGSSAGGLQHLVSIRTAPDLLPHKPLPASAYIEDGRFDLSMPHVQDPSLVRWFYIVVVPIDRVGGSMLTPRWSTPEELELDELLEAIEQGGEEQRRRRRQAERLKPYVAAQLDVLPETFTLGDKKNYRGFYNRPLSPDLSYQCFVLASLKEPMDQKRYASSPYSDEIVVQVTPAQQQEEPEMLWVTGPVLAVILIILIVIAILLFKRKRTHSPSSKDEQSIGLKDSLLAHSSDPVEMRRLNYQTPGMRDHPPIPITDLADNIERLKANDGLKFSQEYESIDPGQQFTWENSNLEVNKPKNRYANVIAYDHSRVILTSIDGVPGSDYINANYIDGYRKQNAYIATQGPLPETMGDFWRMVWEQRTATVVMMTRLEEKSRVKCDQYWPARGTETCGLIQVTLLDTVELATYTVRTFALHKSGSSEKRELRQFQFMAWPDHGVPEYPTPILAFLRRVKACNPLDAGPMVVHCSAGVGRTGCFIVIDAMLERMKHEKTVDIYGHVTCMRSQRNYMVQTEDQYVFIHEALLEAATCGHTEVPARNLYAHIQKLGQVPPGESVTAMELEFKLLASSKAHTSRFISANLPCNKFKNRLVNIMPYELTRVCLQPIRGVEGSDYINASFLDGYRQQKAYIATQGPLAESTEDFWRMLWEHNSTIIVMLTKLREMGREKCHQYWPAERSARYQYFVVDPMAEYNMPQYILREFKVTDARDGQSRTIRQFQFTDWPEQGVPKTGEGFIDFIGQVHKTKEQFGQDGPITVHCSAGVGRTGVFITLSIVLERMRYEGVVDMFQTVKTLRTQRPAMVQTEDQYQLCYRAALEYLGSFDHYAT
UniProt P21709: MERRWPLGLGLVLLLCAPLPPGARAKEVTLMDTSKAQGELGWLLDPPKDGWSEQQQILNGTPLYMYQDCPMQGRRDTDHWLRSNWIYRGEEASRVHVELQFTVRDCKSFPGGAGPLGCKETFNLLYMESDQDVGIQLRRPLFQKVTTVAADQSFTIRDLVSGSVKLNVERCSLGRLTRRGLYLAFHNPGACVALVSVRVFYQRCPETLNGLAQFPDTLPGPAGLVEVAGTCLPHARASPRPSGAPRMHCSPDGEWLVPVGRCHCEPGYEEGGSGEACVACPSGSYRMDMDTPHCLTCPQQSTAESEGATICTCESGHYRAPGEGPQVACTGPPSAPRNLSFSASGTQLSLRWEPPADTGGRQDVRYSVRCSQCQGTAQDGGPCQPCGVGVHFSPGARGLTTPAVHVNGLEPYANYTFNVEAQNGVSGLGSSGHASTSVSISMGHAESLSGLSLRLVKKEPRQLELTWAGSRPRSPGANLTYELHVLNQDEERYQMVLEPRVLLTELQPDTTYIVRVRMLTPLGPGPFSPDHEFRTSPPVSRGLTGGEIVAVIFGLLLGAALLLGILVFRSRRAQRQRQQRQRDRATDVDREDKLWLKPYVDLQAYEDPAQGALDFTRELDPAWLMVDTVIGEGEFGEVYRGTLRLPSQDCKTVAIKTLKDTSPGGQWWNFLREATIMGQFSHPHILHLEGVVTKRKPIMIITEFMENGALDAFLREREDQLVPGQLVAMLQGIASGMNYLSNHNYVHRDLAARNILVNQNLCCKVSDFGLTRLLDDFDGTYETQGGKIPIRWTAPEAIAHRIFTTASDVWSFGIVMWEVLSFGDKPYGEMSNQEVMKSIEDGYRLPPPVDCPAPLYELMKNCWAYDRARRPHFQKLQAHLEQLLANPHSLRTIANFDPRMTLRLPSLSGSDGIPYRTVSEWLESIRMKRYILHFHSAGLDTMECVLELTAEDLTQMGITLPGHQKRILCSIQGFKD
UniProt P49841: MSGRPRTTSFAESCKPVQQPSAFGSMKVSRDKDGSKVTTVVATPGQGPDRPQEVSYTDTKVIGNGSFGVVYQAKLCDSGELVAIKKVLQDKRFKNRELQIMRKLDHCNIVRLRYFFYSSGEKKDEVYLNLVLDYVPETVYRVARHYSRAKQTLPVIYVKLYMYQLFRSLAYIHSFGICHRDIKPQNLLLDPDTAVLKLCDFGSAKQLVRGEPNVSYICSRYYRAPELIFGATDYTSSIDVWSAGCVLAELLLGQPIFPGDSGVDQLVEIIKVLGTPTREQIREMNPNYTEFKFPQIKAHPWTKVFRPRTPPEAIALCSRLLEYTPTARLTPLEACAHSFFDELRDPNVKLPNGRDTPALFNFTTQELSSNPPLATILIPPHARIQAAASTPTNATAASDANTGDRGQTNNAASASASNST
UniProt P21728, whole entry, looked up: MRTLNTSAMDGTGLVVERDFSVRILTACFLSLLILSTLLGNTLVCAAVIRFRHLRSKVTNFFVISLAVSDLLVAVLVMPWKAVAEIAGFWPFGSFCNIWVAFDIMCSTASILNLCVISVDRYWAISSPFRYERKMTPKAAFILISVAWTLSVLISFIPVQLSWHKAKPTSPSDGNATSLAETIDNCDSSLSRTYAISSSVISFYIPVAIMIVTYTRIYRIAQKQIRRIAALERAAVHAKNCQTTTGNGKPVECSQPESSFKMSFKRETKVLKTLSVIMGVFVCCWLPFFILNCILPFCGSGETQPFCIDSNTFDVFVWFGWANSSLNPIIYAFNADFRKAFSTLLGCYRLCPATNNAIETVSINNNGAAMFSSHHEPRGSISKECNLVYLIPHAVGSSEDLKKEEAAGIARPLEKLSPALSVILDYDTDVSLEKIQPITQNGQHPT
UniProt O75469: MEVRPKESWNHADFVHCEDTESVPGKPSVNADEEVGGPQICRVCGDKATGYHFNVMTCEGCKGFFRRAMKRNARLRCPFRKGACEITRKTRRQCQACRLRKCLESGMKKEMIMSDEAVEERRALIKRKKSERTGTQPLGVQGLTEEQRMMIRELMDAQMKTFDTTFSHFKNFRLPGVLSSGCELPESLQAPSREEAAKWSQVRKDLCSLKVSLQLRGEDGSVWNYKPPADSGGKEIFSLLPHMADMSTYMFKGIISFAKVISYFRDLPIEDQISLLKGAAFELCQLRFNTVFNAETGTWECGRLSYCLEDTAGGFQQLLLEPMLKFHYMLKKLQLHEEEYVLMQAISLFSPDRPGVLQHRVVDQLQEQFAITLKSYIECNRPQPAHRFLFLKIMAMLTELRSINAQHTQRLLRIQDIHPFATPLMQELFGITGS

PGR (gene 5241) = PGR (gene 5241) (UniProt P06401); test: NVS_NR_hPR: NovaScreen (NVS) Nuclear Receptor Binding Assay for human Progestron Receptor (PR) (AID 2283360);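 note: active means loss of bound radioligand signal versus DMSO baseline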
Method in brief: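 Radioligand competition binding on receptor extracted from T47D cells, read by scintillation counting 18 h after dosing. Loss of signal versus DMSO; primary screen in duplicate at 25 uM, actives followed in concentration series.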

[2] = molecular target: zebrafish Thyroid Hormone Receptor alpha (TRa), thraa (gene 30670) (UniProt Q98867); test: ATG_zfTRa_XSP2: Attagene TRANS-FACTORIAL Multi-Species (XSP1) HepG2 Assay for zebrafish Thyroid Hormone Receptor alpha (TRa) (AID 2283832);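 note: actives raise zebrafish TRa-Gal4 reporter transcript above DMSO baseline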
Method in brief: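 Readout is reporter mRNA induction, quantified by RT-PCR and capillary electrophoresis with fluorescent labelling, after 24 h compound exposure of transiently transfected HepG2 cells carrying NR-Gal4 chimera reporters. Activity fitted upward relative to DMSO.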

[3] = molecular target: frog Thyroid hormone Receptor alpha (TRa), thra-a (gene 397942) (UniProt P15204); test: ATG_frTRa_XSP2: Attagene TRANS-FACTORIAL Multi-Species (XSP2) HepG2 Assay for frog Thyroid hormone Receptor alpha (TRa) (AID 2283839);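 for AC50: AC50 reflects induction of frog TRa-driven reporter mRNA above DMSO baseline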
Method in brief: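 Transfect HepG2 with multiple reporter units (GAL4-UAS), dose chemical, incubate 24 h. Isolate RNA, reverse-transcribe, PCR-amplify reporter, label with 6-FAM by primer extension, digest with HpaI, run capillary electrophoresis; induction scored against DMSO.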

[4] = IUF_NPC4_neurite_area_120hr: Leibniz Research Institute for Environmental Medicine (IUF) 120-hour Neuronal Morphology Assay for Neurite Area (NPC4) (AID 2284305)
Method in brief: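 hNPC spheres on PDL/laminin, N2 medium, 37C/5% CO2; dosed day 0, half-medium refresh day 3; fixed 120 h; TUBB3/Hoechst ICC, high-content imaging; neurite area = mean pixels per neuron (nuclei excluded); DMSO baseline, max 0.1%.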

[5] = Tanguay_ZF_120hpf_AXIS_legacy: (Legacy) Oregon State University Tanguay Lab 120 Hour Post-fertilization zebrafish Assay for Body Axis Malformation (AID 2283635);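 note: potency for an increased fraction of larvae scored with body axis malformation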
Method in brief: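 Chorion is removed with pronase at 4 hpf, then single 6 hpf embryos are dosed (final DMSO 0.64%) and held statically at 28C in sealed, foil-covered plates. At 120 hpf body axis malformation is recorded as present or absent.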

[6] = molecular target: Serine/threonine-protein phosphatase PP1-alpha catalytic subunit (Homo sapiens) (UniProt P62136); test: NVS_ENZ_hPPP1CA: NovaScreen (NVS) Enzymatic Assay for human Protein Phosphatase 1 Aatalytic subunit Alpha (PPP1CA) (AID 2283200)
Method in brief: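 Chemicals were first screened in duplicate at 25 uM, and those passing threshold (e.g. 30% inhibition) were run as concentration series to 50 uM. Cell-free recombinant protein, 1.33 h read, fluorescent substrate/product mobility-shift detection, normalised to DMSO.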

[7] = molecular target: human Protein Tyrosine Phosphatase Receptor Type F (PTPRF), PTPRF (gene 5792) (UniProt P10586); test: NVS_ENZ_hPTPRF: NovaScreen (NVS) Enzymatic Assay for human Protein Tyrosine Phosphatase Receptor Type F (PTPRF) (AID 2283213)
Method in brief: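 Cell-free fluorescence enzyme assay with recombinant protein and substrate; product separated by electrophoretic mobility shift. Read 1 h after dosing, single 25 uM duplicate screen, then concentration-response up to 50 uM; loss of signal vs DMSO.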

[8] = molecular target: Estrogen receptor (Homo sapiens) (UniProt P03372); test: OT_ER_ERaERa_0480: Odyssey Thera (OT) 8-hour HEK293T Protein-Complementation Assay for Estrogen Receptor-alpha/-alpha Homodimer (AID 2283351);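 note: rise in fluorescence from reassembled reporter fragments on ERα LBD homodimer in nucleus or whole cell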
Method in brief: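 Read-out: fluorescence intensity rise relative to DMSO, nuclear for agonists, nuclear plus cytoplasmic for antagonists. Construct is the ERα LBD (aa 310-547) homodimer fragment-complementation pair, stably expressed in HEK293T; exposure 8 h.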

[9] = molecular target: human Ephrin type-A Receptor 1 (EphA1), EPHA1 (gene 2041) (UniProt P21709); test: NVS_ENZ_hEphA1: NovaScreen (NVS) Enzymatic Assay for human Ephrin type-A Receptor 1 (EphA1) (AID 2283158);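 note: activity is signal loss versus DMSO meaning EphA1 kinase inhibition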
Method in brief: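 Chemicals first tested in duplicate at 25 uM against recombinant EphA1 with a fluorescent substrate; those passing threshold went to singleton dose-response topping at 50 uM. Activity read 1 h later as mobility-shift fluorescence, loss of signal relative to DMSO.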

[10] = molecular target: Glycogen synthase kinase-3 beta (Homo sapiens) (UniProt P49841); test: NVS_ENZ_hGSK3b: NovaScreen (NVS) Enzymatic Assay for human Glycogen Synthase Kinase-3 beta (GSK3b) (AID 2283165)
Method in brief: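 Recombinant enzyme with specific fluorescent substrate, 1 h, product separated by electrophoretic mobility shift. Primary duplicate screen at 25 uM; actives (e.g. 30% inhibition) followed in singleton concentration-response to 50 uM. Signal loss fitted versus DMSO.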

[11] = Tanguay_ZF_120hpf_PE_legacy: (Legacy) Oregon State University Tanguay Lab 120 Hour Post-fertilization zebrafish Assay for Pericardial Edema (AID 2283640);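 note: potency for increased incidence of pericardial edema versus DMSO baseline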
Method in brief: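 Embryos from wild-type 5D adults were staged, then dosed in 0.64% DMSO. They were kept sealed in the dark at 28C until 120 hpf. Pericardial edema was then recorded as present or absent.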

[12] = ATG_M_32_XSP1: Attagene TRANS-FACTORIAL Multi-Species (XSP1) HepG2 Assay for M32 Transcription Factor (Internal Marker) (AID 2283799)
Method in brief: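 Reporter transcripts from the M32 internal-control unit measured by RT-PCR, FAM labelling, HpaI digestion and capillary electrophoresis after 24 h compound exposure of transfected HepG2, 3 nM 6-alpha-fluorotestosterone included; DMSO baseline, positive-direction fit.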

[13] = read-out: xenobiotic metabolism (CYP1A2), CYP1A2 (gene 1544); test: CLD_CYP1A2_48hr: CellzDirect (CLD) Gene Expression Assay for xenobiotic metabolism (CYP1A2) at 48 hours (AID 2283703)
Method in brief: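 Cytotoxicity was flagged yes/no from morphology, while CYP1A2 transcript induction was detected by qNPA chemiluminescence after a 48-hour exposure. Human primary hepatocyte cultures from separate donors received fresh dosing solutions daily over two days, with 0.2% DMSO as vehicle and baseline.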

[14] = molecular target: rat Neurotensin Receptor (NTS), Ntsr1 (gene 366274) (UniProt P20789); test: NVS_GPCR_rNTS: NovaScreen (NVS) G Protein-Coupled Receptor Assay for rat Neurotensin Receptor (NTS) (AID 2283308)
Method in brief: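 Single-point duplicates at 25 uM, then concentration series to 50 uM max for hits, measured radioligand displacement on rat forebrain membrane preparations. Bound label counted by filtration scintillation at 1 h; signal loss relative to DMSO fitted.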

[15] = molecular target: D(1A) dopamine receptor (Homo sapiens) (UniProt P21728); test: NVS_GPCR_hDRD1: NovaScreen (NVS) G Protein-Coupled Receptor Assay for human Dopamine Receptor D1 (DRD1) (AID 2283269)
Method in brief: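 Radioligand displacement binding on membranes/protein extracted from HEK293 expressing human D1, cell-free; read 1 h after dosing by filter-based scintillation counting. Primary screen in duplicate at 25 uM, actives followed up in concentration series; signal loss versus DMSO baseline.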

[16] = molecular target: rat Constitutive Nitric Oxide Synthase (CNOS), Nos1 (gene 24598) (UniProt P29476); test: NVS_ENZ_rCNOS: NovaScreen (NVS) Enzymatic Assay for rat Constitutive Nitric Oxide Synthase (CNOS) (AID 2283236)
Method in brief: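 Single 25 uM duplicate screen, then concentration series to 50 uM for chemicals meeting threshold. Rat brain membrane-derived CNOS activity detected radiometrically by filtration and scintillation counting, 1 h after compound addition; DMSO as baseline.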

[17] = molecular target: Adenosine receptor A1 (Bos taurus) (UniProt P28190); test: NVS_GPCR_bAdoR_NonSelective: NovaScreen (NVS) G Protein-Coupled Receptor Assay for bovine Adenosine Receptor (AdoR), Non-selective Binding (AID 2283244)
Method in brief: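 Cell-free binding with membranes from bovine striatum: radioligand displaced by test chemical, read after 1 h by filtration and scintillation. Single-point 25 uM duplicate primary, 50 uM top concentration in follow-up curves, DMSO baseline.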

[18] = molecular target: Nuclear receptor subfamily 1 group I member 2 (Homo sapiens) (UniProt O75469); test: NVS_NR_hPXR: NovaScreen (NVS) Nuclear Receptor Binding Assay for human Pregnane X Receptor (PXR) (AID 2283365);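 note: a drop in FRET signal versus DMSO baseline means the compound binds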
Method in brief: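 Human PXR protein, cell-free; compound added, incubated 2 h, TR-FRET read. Signal decrease vs DMSO = binding. Screened 25 uM duplicate, actives re-run as dilution series.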

Question: For N#Cc1c[nH]cc1-c1cccc2c1OC(F)(F)O2, which AC50 [1] is on record?
Answer: Its AC50 is inconclusive: 25 µM.

Question: And the AC50 (PGR (gene 5241))?
Answer: Its AC50 is inconclusive: 6.91 µM.

Question: What about the AC50 [2] of the same compound?
Answer: The AC50 was active: 27 µM.

Question: What about the outcome [2] of the same compound?
Answer: Its outcome is “inactive”.

Question: What about the AC50 [3] of the same compound?
Answer: The AC50 was active: 100 µM and active: 60.7 µM.

Question: Which outcome [4] does the source give for Cc1ccccc1OP(=O)(Oc1ccccc1C)Oc1ccccc1C here?
Answer: The outcome was “inactive”.

Question: With O=C(CCl)CCl as the compound, how does the outcome [1] read?
Answer: The outcome was “inactive”.

Question: Which AC50 [5] does the source give for COCc1cnc(C2=NC(C)(C(C)C)C(=O)N2)c(C(=O)O)c1 (stereo unspecified) here?
Answer: The AC50 was inconclusive: 89.5 µM.

Question: Which results are given for O=C(O)C(F)(F)C(F)(F)C(F)(F)C(F)(F)C(F)(F)C(F)(F)C(F)(F)C(F)(F)F?
Answer: AC50 [6]: inconclusive: 25 µM; outcome [7]: inactive; AC50 [8]: inconclusive: 50 µM

Question: With CCNc1nc(NC(C)(C)C)nc(SC)n1 as the compound, how does the AC50 [9] read?
Answer: The AC50 was inconclusive: 0.13 µM.

Question: Which results are given for C=CC(N)=O?
Answer: outcome [10]: inactive; outcome [7]: inactive

Question: With CCOP(=S)(OCC)SCn1c(=O)oc2cc(Cl)ccc21 as the compound, how does the AC50 [11] read?
Answer: Its AC50 is inconclusive: 0.796 µM.

Question: What about the AC50 [12] of the same compound?
Answer: The AC50 was inconclusive: 100 µM.

Question: With N#CN as the compound, how does the AC50 [13] read?
Answer: The AC50 was inconclusive: 16.1 µM.

Question: Which outcome [14] does the source give for CCOP(=O)(OCC)Oc1cc(C)nc(C(C)C)n1 here?
Answer: Its outcome is “inactive”.

Question: With CCS(=O)(=O)c1cccnc1S(=O)(=O)NC(=O)Nc1nc(OC)cc(OC)n1 as the compound, how does the AC50 [15] read?
Answer: The AC50 was inconclusive: 5.93 µM.

Question: Which AC50 [16] does the source give for Cc1nn(-c2cc(NS(C)(=O)=O)c(Cl)cc2Cl)c(=O)n1C(F)F here?
Answer: Its AC50 is inconclusive: 0.335 µM.

Question: With CS/C(C)=N/OC(=O)N(C)SN(C)C(=O)O/N=C(\C)SC as the compound, how does the AC50 [17] read?
Answer: Its AC50 is inconclusive: 45.3 µM.

Question: For COC(=O)N(OC)c1ccccc1COc1ccn(-c2ccc(Cl)cc2)n1, which AC50 [12] is on record?
Answer: Its AC50 is inconclusive: 10 µM.

Question: And the outcome [3]?
Answer: Its outcome is “inactive”.

Question: What about the AC50 [4] of the same compound?
Answer: Its AC50 is active: 0.167 µM.

Question: Which AC50 [6] does the source give for ClC1=C(Cl)C2(Cl)C3C(Cl)C(Cl)CC3C1(Cl)C2(Cl)Cl (stereo unspecified) here?
Answer: Its AC50 is inconclusive: 0.0731 µM.

Question: And the AC50 [7]?
Answer: The AC50 was inconclusive: 0.0673 µM.

Question: And the AC50 [8]?
Answer: Its AC50 is inconclusive: 50 µM.

Question: For Clc1cccc(C(Cl)(Cl)Cl)n1, which AC50 [11] is on record?
Answer: The AC50 was inconclusive: 202 µM.

Question: For CC(C)(c1cc(Cl)c(O)c(Cl)c1)c1cc(Cl)c(O)c(Cl)c1, which AC50 [18] is on record?
Answer: The AC50 was active: 5.12 µM.

Question: With c1cc2ccc3cccc4ccc(c1)c2c34 as the compound, how does the AC50 [18] read?
Answer: The AC50 was inconclusive: 12.6 µM.

Question: What about the AC50 [2] of the same compound?
Answer: Its AC50 is inconclusive: 100 µM.

Question: And the outcome [2]?
Answer: The outcome was “inactive”.

Question: And the outcome [3]?
Answer: The outcome was “inactive”.

Question: Which outcome [17] does the source give for O=C(O)C(F)(F)C(F)(F)C(F)(F)C(F)(F)C(F)(F)C(F)(F)C(F)(F)C(F)(F)C(F)(F)C(F)(F)F here?
Answer: Its outcome is “inactive”.

Question: What about the AC50 [5] of the same compound?
Answer: Its AC50 is inconclusive: 176 µM.

Question: For CCCCC(CC)CO[N+](=O)[O-] (stereo unspecified), which AC50 [9] is on record?
Answer: Its AC50 is inconclusive: 25 µM.

Question: With c1ccc2c(c1)Nc1ccccc1S2 as the compound, how does the AC50 [2] read?
Answer: The AC50 was inconclusive: 24.5 µM.

Question: For [O-][Cl+2]([O-])O, which outcome [18] is on record?
Answer: The outcome was “inactive”.

Question: With CC(COc1ccc(Oc2ccccc2)cc1)Oc1ccccn1 (stereo unspecified) as the compound, how does the AC50 [17] read?
Answer: The AC50 was inconclusive: 12.3 µM.

Question: What about the AC50 [13] of the same compound?
Answer: Its AC50 is inconclusive: 20 µM.

Question: With CNC(=O)/C=C(\C)OP(=O)(OC)OC as the compound, how does the outcome [14] read?
Answer: Its outcome is “inactive”.
